Results are given in words; binding and its absence hold for the method and conditions named. Some entries that bind do so weakly or less than the wild type.
Target: T1, E-selectin Ig chimera (human) (UniProt P16581)
T1 sequence (looked up): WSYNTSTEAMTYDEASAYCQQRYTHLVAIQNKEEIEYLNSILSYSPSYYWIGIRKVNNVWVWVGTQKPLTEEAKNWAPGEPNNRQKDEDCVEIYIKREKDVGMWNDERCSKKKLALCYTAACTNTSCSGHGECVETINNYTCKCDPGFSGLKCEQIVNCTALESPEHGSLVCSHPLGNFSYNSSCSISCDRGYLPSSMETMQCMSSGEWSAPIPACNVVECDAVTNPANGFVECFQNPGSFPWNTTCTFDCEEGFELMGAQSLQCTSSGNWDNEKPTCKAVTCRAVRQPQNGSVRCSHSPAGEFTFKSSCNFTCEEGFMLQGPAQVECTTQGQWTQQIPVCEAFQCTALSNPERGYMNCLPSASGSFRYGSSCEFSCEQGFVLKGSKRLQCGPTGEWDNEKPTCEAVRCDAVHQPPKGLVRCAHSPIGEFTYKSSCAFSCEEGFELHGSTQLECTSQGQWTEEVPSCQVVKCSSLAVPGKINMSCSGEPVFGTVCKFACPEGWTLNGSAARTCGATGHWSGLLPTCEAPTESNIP
Assay: adhesion of 51Cr-labelled COS cells (PSGL-1 + FTVII, 10 mM NaClO3) to immobilized E-selectin Ig

B1: PSGL-1-flu + FTVII, on COS cells grown in sulfate-free medium with 10 mM sodium chlorate (ligand, UniProt Q14242 42-412, looked up, not shown: small tags and cut ends)
chain: QATEYEYLDYDFLPETEPPEMLRNSTDTTPLTGPGTPESTTVEPAARRSTGLDAGGAVTELTTELANMGNLSTDSAAMEIQTTQPAATEAQTTQPVPTEAQTTPLAATEAQTTRLTATEAQTTPLAATEAQTTPPAATEAQTTQPTGLEAQTTAPAAMEAQTTAPAAMEAQTTPPAAMEAQTTQTTAMEAQTTAPEATEAQTTQPTATEAQTTPLAAMEALSTEPSATEALSMEPTTKRGLFIPFSVSSVTHKGIPMAASNLSVNYPVGAPDHISVKQCLLAILILALVATIFFVCTVVLAVRLSRKGHMYPVRNYSPTEMVCISSLLPDGGEGPSATANGGLSKAKSPGLTPEPREDREGDDLTLHSFLP
modifications: sulfation inhibited by 10 mM NaClO3; sLe^x present
- binding: binds

— patent US7399847 (GENERAL HOSPITAL, dated 2008)
